Assay results from paper PMC9484695, “The evolutionary conserved proteins CEP90, FOPNL, and OFD1 recruit centriolar distal appendage proteins to initiate their assembly” (PLoS Biology, 2022).

Protein sequences, listed by entry. Tags and fused reporters are not part of them.
UniProt Q96NB1: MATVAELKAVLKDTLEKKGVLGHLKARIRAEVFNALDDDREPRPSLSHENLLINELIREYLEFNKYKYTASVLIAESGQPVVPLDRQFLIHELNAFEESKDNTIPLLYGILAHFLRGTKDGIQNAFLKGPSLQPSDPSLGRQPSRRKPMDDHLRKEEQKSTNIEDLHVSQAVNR
UniProt Q5VT06: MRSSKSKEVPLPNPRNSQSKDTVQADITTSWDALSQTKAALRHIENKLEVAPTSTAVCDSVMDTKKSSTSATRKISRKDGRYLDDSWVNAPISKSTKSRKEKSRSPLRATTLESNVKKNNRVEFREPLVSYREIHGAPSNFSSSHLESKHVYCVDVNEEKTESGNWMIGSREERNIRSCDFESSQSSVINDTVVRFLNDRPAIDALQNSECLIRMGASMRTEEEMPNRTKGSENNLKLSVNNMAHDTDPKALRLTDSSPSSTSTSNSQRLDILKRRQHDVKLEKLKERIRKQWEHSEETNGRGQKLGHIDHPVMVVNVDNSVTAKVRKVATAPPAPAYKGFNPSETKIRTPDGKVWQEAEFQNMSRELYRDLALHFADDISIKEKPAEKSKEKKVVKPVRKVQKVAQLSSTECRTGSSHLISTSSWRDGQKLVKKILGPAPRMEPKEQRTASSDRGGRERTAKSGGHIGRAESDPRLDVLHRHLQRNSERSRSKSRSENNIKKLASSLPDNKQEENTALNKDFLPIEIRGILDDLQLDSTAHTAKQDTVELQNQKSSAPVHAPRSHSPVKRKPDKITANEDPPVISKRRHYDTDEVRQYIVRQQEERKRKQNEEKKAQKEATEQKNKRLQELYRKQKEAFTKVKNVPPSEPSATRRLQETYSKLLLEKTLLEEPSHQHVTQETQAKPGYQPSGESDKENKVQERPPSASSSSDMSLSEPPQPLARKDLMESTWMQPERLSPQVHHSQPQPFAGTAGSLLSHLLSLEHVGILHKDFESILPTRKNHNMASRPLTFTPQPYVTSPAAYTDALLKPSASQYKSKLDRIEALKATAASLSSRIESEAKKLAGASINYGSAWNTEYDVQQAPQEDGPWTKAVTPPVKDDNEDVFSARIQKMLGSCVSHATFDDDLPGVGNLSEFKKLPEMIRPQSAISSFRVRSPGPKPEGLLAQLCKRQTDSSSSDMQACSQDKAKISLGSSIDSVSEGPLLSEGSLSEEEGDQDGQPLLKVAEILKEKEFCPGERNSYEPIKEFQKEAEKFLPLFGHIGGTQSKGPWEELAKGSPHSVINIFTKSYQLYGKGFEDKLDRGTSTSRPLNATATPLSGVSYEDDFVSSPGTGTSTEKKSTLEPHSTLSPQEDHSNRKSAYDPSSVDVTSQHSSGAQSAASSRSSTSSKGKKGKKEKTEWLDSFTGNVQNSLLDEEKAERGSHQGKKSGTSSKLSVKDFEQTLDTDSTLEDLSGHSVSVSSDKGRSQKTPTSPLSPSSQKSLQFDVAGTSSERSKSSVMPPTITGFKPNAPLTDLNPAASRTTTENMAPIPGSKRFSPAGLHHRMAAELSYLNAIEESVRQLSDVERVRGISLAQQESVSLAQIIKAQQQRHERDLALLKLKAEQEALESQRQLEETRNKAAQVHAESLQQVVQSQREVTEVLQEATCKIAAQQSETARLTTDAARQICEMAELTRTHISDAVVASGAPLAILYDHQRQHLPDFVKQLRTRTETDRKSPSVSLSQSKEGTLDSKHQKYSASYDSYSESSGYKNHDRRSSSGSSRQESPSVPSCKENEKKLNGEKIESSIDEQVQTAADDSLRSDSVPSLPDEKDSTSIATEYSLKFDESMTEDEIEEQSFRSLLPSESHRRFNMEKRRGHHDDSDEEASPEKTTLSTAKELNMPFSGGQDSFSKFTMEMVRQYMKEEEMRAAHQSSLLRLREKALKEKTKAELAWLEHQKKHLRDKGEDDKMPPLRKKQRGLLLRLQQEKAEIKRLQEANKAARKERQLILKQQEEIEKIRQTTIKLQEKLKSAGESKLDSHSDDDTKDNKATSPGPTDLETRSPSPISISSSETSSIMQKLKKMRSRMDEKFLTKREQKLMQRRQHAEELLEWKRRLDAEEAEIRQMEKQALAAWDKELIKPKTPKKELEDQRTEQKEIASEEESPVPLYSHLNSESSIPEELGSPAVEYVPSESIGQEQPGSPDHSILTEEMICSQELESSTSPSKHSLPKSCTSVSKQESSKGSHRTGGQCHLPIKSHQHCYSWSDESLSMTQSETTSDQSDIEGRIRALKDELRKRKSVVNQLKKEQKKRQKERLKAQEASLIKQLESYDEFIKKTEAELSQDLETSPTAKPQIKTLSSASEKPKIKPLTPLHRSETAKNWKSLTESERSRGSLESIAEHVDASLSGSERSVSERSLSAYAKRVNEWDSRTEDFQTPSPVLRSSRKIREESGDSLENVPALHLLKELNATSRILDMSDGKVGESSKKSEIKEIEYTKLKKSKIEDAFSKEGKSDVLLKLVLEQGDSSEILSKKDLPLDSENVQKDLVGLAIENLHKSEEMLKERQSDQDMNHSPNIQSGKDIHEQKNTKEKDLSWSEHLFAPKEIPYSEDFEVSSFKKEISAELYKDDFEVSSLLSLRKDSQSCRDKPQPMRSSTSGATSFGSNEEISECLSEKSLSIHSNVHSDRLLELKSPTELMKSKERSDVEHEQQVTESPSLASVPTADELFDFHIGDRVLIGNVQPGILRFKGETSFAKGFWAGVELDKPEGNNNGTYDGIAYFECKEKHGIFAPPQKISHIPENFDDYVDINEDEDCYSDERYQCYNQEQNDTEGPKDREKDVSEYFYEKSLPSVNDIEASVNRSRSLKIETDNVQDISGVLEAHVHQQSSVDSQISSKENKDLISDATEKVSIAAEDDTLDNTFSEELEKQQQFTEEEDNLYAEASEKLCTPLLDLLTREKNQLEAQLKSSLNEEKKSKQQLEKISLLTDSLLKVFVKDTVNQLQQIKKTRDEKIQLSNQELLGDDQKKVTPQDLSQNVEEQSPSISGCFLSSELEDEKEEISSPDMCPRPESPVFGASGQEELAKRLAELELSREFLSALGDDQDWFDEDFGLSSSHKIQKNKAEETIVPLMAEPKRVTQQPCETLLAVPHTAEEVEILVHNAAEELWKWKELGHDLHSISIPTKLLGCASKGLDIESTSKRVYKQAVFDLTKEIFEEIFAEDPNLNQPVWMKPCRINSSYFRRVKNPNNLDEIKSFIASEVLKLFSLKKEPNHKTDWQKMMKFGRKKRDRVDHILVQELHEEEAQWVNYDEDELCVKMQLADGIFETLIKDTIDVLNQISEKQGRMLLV
UniProt Q9BVV6: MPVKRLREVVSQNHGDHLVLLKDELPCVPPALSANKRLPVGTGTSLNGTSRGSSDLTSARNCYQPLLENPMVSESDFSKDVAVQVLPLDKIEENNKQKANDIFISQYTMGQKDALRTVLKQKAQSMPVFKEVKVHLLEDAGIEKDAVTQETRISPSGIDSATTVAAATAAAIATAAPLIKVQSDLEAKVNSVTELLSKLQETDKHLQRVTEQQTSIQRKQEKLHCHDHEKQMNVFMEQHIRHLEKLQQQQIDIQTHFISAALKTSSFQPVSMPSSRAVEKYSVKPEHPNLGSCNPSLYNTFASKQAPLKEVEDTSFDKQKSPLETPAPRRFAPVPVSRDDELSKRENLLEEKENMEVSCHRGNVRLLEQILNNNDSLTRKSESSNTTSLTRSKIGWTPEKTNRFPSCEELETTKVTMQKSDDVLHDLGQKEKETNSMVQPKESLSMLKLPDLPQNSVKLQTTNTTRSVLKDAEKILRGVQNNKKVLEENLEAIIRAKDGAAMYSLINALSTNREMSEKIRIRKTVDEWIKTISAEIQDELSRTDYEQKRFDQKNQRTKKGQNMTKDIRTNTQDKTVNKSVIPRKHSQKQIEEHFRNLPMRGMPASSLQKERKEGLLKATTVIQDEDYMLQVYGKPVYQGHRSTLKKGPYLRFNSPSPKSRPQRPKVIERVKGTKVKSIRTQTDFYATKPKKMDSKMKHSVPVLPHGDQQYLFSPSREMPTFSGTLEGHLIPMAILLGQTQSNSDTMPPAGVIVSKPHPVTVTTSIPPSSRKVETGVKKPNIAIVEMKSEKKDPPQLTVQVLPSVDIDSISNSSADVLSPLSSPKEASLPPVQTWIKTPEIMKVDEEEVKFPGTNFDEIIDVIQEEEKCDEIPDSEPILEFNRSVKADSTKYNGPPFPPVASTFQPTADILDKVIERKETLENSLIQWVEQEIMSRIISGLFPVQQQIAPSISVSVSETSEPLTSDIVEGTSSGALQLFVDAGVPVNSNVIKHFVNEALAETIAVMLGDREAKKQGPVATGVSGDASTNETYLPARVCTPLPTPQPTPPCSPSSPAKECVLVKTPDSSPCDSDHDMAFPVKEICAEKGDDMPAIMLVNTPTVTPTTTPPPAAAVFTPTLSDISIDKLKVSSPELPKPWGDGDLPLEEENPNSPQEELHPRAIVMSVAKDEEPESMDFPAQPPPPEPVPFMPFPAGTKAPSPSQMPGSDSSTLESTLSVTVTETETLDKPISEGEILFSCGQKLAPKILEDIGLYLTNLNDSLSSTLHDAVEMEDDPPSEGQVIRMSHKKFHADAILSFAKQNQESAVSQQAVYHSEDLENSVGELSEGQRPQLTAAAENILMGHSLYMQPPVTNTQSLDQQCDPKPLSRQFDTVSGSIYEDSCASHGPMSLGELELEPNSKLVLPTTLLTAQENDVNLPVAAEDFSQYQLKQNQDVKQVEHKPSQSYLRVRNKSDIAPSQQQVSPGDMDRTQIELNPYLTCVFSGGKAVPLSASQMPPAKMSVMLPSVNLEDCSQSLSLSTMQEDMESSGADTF

B1: OFIP/MNR/KIAA0753 (endogenous) (protein, UniProt Q2KHM9 1-967)
chain: MGPGQPASTCVHLAPRTQLDGRSDPKVLQTQNQLQFNRNVPTHSSNLAIRYSCPHAIRIEKLKHSYNESYHCKDADCRVGPDLGSSVSFSVISQERLSYAVHLARRDVKRRQFEKHIKEHHLRSQPQSSQKCGHTKYKIPDHRVERKESKSQAACQCSHQPSKVEISSSGAKVYLYSSHPGQSDLTVPNSPPTHDPGLQPHPRIGDHKNISEQKSLLEVQRLQKELSSCIHKIEEVTKKDRLEEALDPDEERRIRIRRQEQAARSARMLYVLQQQVKEIQEELDKLSPHKIKHTKKSWAMSKLAAAHRGAIRALQMFVTQFTDRGEHPLPARCKELGSLIRQLSLCSVKLDADPSVPDVVIDILQQIEALESLLEKKLSPKKVKKCFSEIRSRFPIGSQKALERWPSTSPKGERRPLTAKDTFPQETSRPSVAKQLLADKYQPDTELPETQRLQSELDVLDADIVLEEGPFILDQSASFKDEVLAVAKTKAGKKKPVTENVPFRKKDTLAPARQQGLRKAERGRQSQPHSKSRVQQTTVSSRLKMNRQPVKDRKAPWIPPNPTSPPASPKCAAWLKVKTSPRDATKEPLQQEDPQEESHLTGAVEHEAARLAWLDAETSKRLKELEELKAKEIDSMQKQRLDWLDAETSRRTKELNELKAEEMYRLQQLSVSATHLADKVEEAVLDRLKPLLVKAQRVNSTTEANIHLKDGSSVNTAKAQPAQEVAAVDFESNNIRQLDDFLEDCASELWAVTHAKILGSETLATVEDSKDSPDLEIMMRRMEEMEKYQESVRQRYNKIAYADPRLWMQEENNDQKISAISEKPLSPHPIRITKTVDRKDPAVNIMLERPCNGNSLDESVGTEEGSEKREAPLLSLAEDSQQKEGRAPLFVPPGMQHSIGDYCSRFEQYLRIISHEAVGSFNPWLIAESFSEELVDEALGAVAAELQDMCEDYAEAVFTSEFLEAAT
B2: CEP90/PIBF1 (endogenous) (protein, UniProt Q8WXW3 1-757)
chain: MSRKISKESKKVNISSSLESEDISLETTVPTDDISSSEEREGKVRITRQLIERKELLHNIQLLKIELSQKTMMIDNLKVDYLTKIEELEEKLNDALHQKQLLTLRLDNQLAFQQKDASKYQELMKQEMETILLRQKQLEETNLQLREKAGDVRRNLRDFELTEEQYIKLKAFPEDQLSIPEYVSVRFYELVNPLRKEICELQVKKNILAEELSTNKNQLKQLTETYEEDRKNYSEVQIRCQRLALELADTKQLIQQGDYRQENYDKVKSERDALEQEVIELRRKHEILEASHMIQTKERSELSKEVVTLEQTVTLLQKDKEYLNRQNMELSVRCAHEEDRLERLQAQLEESKKAREEMYEKYVASRDHYKTEYENKLHDELEQIRLKTNQEIDQLRNASREMYERENRNLREARDNAVAEKERAVMAEKDALEKHDQLLDRYRELQLSTESKVTEFLHQSKLKSFESERVQLLQEETARNLTQCQLECEKYQKKLEVLTKEFYSLQASSEKRITELQAQNSEHQARLDIYEKLEKELDEIIMQTAEIENEDEAERVLFSYGYGANVPTTAKRRLKQSVHLARRVLQLEKQNSLILKDLEHRKDQVTQLSQELDRANSLLNQTQQPYRYLIESVRQRDSKIDSLTESIAQLEKDVSNLNKEKSALLQTKNQMALDLEQLLNHREELAAMKQILVKMHSKHSENSLLLTKTEPKHVTENQKSKTLNVPKEHEDNIFTPKPTLFTKKEAPEWSKKQKMKT
B3: Cep131 (endogenous) (protein, UniProt Q9UPN4 1-1083)
chain: MKGTRAIGSVPERSPAGVDLSLTGLPPPVSRRPGSAATTKPIVRSVSVVTGSEQKRKVLEATGPGGSQAINNLRRSNSTTQVSQPRSGSPRPTEPTDFLMLFEGSPSGKKRPASLSTAPSEKGATWNVLDDQPRGFTLPSNARSSSALDSPAGPRRKECTVALAPNFTANNRSNKGAVGNCVTTMVHNRYTPSERAPPLKSSNQTAPSLNNIIKAATCEGSESSGFGKLPKNVSSATHSARNNTGGSTGLPRRKEVTEEEAERFIHQVNQATVTIQRWYRHQVQRRGAGAARLEHLLQAKREEQRQRSGEGTLLDLHQQKEAARRKAREEKARQARRAAIQELQQKRALRAQKASTAERGPPENPRETRVPGMRQPAQELSPTPGGTAHQALKANNTGGGLPAAGPGDRCLPTSDSSPEPQQPPEDRTQDVLAQDAAGDNLEMMAPSRGSAKSRGPLEELLHTLQLLEKEPDVLPRPRTHHRGRYAWASEVTTEDDASSLTADNLEKFGKLSAFPEPPEDGTLLSEAKLQSIMSFLDEMEKSGQDQLDSQQEGWVPEAGPGPLELGSEVSTSVMRLKLEVEEKKQAMLLLQRALAQQRDLTARRVKETEKALSRQLQRQREHYEATIQRHLAFIDQLIEDKKVLSEKCEAVVAELKQEDQRCTERVAQAQAQHELEIKKLKELMSATEKARREKWISEKTKKIKEVTVRGLEPEIQKLIARHKQEVRRLKSLHEAELLQSDERASQRCLRQAEELREQLEREKEALGQQERERARQRFQQHLEQEQWALQQQRQRLYSEVAEERERLGQQAARQRAELEELRQQLEESSSALTRALRAEFEKGREEQERRHQMELNTLKQQLELERQAWEAGRTRKEEAWLLNREQELREEIRKGRDKEIELVIHRLEADMALAKEESEKAAESRIKRLRDKYEAELSELEQSERKLQERCSELKGQLGEAEGENLRLQGLVRQKERALEDAQAVNEQLSSERSNLAQVIRQEFEDRLAASEEETRQAKAELATLQARQQLELEEVHRRVKTALARKEEAVSSLRTQHEAAVKRADHLEELLEQHRRPTPSTK

Molecular target: myc-BirA*-FOPNL (human) (UniProt Q96NB1)
Assay: proximity labelling; BioID: Flp-In T-REx HEK293 expressing myc-BirA*-FOPNL (control myc-BirA*), 50 uM biotin 24 h with tetracycline; isolated centrosome-nucleus complexes lysed; biotinylated proteins on streptavidin beads; LC-MS/MS

binding, binds:
CEP350 (endogenous) (from UniProt Q5VT06 1-3117)
PCM1 (endogenous) (from UniProt Q15154 1-2024)
Talpid3/KIAA0586 (endogenous) (from UniProt Q9BVV6 1-1533)
B1
B2
B3

These are yes or no findings as the source states them, for the method shown. In cells and extracts the contact can be indirect. A yes stands for co-enrichment or nearness to the bait. Other partners may have been found.
